For six substances, binding results are on record in publication PMC4863600.

Chains of the proteins cited; added tags and fusions are not shown. Lines headed by an entry give the natural chain unless they say otherwise; changes in a name come on top.
UniProt Q9RVW5: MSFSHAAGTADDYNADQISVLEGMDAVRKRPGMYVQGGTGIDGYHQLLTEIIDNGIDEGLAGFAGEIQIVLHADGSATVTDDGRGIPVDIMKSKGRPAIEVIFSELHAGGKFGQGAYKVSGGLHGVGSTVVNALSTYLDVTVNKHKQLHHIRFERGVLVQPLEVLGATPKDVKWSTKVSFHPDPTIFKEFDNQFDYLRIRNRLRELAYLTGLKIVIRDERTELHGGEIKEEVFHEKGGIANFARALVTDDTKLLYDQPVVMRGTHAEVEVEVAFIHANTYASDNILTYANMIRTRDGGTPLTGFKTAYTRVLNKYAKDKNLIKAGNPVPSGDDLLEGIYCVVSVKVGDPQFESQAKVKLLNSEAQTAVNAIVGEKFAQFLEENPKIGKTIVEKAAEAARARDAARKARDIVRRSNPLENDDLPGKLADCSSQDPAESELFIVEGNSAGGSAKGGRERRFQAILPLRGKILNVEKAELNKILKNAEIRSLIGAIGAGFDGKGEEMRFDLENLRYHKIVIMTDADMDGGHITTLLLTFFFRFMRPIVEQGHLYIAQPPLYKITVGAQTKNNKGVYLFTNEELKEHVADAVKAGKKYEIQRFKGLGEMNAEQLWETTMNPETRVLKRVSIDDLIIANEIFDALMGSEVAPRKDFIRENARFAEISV
UniProt Q9R342: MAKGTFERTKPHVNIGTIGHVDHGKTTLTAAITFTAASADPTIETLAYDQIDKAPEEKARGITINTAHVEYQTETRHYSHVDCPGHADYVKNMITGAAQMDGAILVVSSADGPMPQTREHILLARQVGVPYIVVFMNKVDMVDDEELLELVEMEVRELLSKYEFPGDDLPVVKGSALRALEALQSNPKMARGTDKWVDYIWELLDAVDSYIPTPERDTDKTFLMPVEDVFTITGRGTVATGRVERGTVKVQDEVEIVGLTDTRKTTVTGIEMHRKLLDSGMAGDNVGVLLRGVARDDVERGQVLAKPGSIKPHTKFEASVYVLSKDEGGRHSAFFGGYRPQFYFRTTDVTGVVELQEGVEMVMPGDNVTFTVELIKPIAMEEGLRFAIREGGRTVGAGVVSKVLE
UniProt P56867: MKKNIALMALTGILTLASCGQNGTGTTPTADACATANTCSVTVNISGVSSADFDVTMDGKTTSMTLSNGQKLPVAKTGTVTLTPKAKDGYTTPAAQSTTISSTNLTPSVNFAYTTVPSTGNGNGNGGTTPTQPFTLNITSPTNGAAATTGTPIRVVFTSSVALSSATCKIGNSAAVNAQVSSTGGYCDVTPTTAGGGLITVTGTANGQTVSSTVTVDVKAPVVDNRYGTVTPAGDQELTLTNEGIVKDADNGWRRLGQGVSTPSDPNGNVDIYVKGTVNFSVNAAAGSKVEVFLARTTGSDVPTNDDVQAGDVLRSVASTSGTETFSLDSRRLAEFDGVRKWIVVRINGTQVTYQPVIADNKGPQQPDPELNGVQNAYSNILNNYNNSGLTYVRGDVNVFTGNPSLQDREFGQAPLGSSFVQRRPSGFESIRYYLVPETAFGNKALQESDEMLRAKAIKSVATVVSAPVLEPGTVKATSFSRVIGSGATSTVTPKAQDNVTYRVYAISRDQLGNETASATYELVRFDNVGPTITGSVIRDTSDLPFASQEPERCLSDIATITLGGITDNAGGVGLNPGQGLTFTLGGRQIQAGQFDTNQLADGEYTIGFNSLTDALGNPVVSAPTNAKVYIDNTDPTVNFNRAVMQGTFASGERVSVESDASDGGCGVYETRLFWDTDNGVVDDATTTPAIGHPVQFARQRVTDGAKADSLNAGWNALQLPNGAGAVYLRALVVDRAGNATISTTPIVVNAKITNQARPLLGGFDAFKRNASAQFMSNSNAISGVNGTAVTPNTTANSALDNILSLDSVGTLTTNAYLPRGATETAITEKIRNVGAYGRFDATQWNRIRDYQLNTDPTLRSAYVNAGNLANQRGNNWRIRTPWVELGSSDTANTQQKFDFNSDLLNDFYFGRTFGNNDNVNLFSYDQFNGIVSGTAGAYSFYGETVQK
UniProt Q9RT14: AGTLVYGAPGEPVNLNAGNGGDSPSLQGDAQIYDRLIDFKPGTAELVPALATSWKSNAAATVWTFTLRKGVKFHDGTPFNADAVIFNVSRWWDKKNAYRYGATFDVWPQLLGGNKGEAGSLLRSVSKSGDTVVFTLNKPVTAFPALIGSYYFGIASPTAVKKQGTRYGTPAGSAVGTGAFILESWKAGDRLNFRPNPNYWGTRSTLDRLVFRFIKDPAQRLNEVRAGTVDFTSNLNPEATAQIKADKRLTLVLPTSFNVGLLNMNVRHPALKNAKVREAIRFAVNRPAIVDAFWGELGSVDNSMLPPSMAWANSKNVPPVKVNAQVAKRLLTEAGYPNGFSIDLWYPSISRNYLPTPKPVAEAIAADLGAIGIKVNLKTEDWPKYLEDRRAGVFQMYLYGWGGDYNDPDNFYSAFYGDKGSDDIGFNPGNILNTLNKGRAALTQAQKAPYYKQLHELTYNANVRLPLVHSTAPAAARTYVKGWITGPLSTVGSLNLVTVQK

No constants are given. Whether binding was seen depends on the method and setting. In cells and extracts the contact can be indirect. A yes stands for co-enrichment or nearness to the bait. Other partners may have been found. A no says only that the protein was not detected with the bait. Tags and fused reporters may be left off the sequences shown.

The target in this assay is T1, PprA::HA fusion protein (D. radiodurans) (UniProt O32504).
T1 sequence: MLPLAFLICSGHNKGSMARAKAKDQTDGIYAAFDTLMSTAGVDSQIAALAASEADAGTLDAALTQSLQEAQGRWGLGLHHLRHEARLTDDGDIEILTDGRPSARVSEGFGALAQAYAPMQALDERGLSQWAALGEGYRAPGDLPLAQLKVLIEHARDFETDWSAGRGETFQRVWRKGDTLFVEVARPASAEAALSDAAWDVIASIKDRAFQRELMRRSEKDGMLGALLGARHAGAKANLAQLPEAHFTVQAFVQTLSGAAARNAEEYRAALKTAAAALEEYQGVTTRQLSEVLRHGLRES
As to the kind of experiment: affinity purification with mass spectrometry; anti-HA immunoprecipitation (protein G magnetic beads) of PprA::HA from extracts of D. radiodurans GY14615 exposed to 3.8 kGy gamma radiation and recovered 110 min; lysis buffer A (50 mM Tris pH 7.5, 100 mM NaCl, 5 mM MgCl2, 1 mM DTT, 0.5% Triton X-100), 10°C; shotgun MS-MS; compared with nonirradiated cells and with irradiated ΔpprA cells.
In the case of “DNA gyrase subunit B (from UniProt Q9RVW5)”, the binding entry was “binds”. Turning to “Elongation factor Tu (from UniProt Q9R342 1-405)”, the binding entry is reported as “binds”. Regarding RNA helicase, the binding result is reported as “binds”. The value for “Hexagonally packed intermediate layer surface protein (from UniProt P56867)” was “binds”; that for DNA topoisomerase IB was “no binding”.

In the case of “Peptide ABC transporter substrate-binding protein (from UniProt Q9RT14)”, the binding result is reported as “binds”.
